According to patent publication USRE50082E1, “(5,6-dihydro)pyrimido[4,5-e]indolizines” (NETHERLANDS TRANSLATIONAL RESEARCH CENTER B.V., priority 2014, dated 2024):
Some results were stated once for a whole list of compounds, not compound by compound. For some of these results: At least one structure is not confirmed: it was looked up by name or label, or the drawing left a doubt.

Target: T1, TTK enzyme (Homo sapiens, UniProt P33981)
T1 construct: full-length TTK enzyme (Life Technologies, Cat. no. PV 3792); purchased Life Technologies PV 3792
T1 sequence (P33981 1-857): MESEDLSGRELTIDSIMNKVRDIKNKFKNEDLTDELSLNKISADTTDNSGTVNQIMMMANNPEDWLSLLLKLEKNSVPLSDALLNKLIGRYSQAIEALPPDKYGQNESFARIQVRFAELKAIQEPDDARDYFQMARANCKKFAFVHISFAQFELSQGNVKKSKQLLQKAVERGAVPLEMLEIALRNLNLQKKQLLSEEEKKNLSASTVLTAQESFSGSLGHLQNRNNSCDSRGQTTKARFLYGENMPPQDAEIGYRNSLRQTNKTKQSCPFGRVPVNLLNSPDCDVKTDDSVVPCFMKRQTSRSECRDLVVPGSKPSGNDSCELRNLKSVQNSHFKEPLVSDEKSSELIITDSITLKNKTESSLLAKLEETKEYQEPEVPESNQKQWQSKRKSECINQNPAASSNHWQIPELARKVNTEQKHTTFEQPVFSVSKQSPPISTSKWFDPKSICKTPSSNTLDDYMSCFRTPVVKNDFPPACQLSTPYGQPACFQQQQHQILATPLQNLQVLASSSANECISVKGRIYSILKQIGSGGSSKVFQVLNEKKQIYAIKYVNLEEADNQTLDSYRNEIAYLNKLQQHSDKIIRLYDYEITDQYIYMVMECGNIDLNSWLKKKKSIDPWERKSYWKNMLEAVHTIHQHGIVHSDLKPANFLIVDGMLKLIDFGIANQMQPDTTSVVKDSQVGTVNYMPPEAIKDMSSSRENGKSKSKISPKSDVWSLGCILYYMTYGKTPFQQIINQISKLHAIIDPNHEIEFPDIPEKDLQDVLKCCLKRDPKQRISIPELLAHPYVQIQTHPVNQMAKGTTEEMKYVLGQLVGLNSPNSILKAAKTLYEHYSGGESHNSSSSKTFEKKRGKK
Assay: Biochemical kinase assay: TTK enzyme activity, IMAP assay
Conditions: full-length TTK, 1 hour pre-incubation, 5 μM ATP

IC50, < 50 nM:
COCCOCCn1nc(C)c(NC(=O)c2ccn3c2CCc2cnc(Nc4ccc(N5CCN(C)CC5)cc4OC)nc2-3)c1C [Example 149, N-[1-[2-(2-methoxyethoxy)ethyl]-3,5-dimethyl-pyrazol-4-yl]-2-[2-methoxy-4-(4-methylpiperazin-1-yl)anilino]-b,6-dihydropyrimido[4,5-e]indolizine-7-carboxamide]
CCOCCOCCn1nc(CC)c(NC(=O)c2ccn3c2CCc2cnc(Nc4ccc(N5CCN(C)CC5)cc4OC)nc2-3)c1CC [Example 150, N-[1-[2-(2-ethoxyethoxy)ethyl]-3,5-diethyl-pyrazol-4-yl]-2-[2-methoxy-4-(4-methylpiperazin-1-yl)anilino]-5,6-dihydropyrimido[4,5-e]indolizine-7-carboxamide]
CCOCCOCCn1nc(CC)c(NC(=O)c2ccn3c2CCc2cnc(Nc4ccc(N5CCNCC5)cc4OC)nc2-3)c1CC [Example 151, N-[1-[2-(2-ethoxyethoxy)ethyl]-3,5-diethyl-pyrazol-4-yl]-2-(2-methoxy-4-piperazin-1-yl-anilino)-5,6-dihydropyrimido[4,5-e]indolizine-7-carboxamide]
COCCn1nc(C)c(NC(=O)c2ccn3c2CCc2cnc(Nc4ccc(N5CCN(C(=O)C6CN(C)C6)CC5)cc4OC)nc2-3)c1C [Example 155, N-[1-(2-methoxyethyl)-3,5-dimethyl-pyrazol-4-yl]-2-[2-methoxy-4-[4-(1-methylazetidine-3-carbonyl)piperazin-1-yl]anilino]-5,6-dihydropyrimido[4,5-e]indolizine-7-carboxamide]
COCCOCCOCCn1nc(C)c(NC(=O)c2ccn3c2CCc2cnc(Nc4ccc(N5CCNCC5)cc4OC)nc2-3)c1C [Example 156, N-[1-[2-[2-(2-methoxyethoxy)ethoxy]ethyl]-3,5-dimethyl-pyrazol-4-yl]-2-(2-methoxy-4-piperazin-1-yl-anilino)-5,6-dihydropyrimido[4,5-e]indolizine-7-carboxamide]
CCNCC(=O)N1CCN(c2ccc(Nc3ncc4c(n3)-n3ccc(C(=O)Nc5c(C)nn(CCOCCOCCOC)c5C)c3CC4)c(OC)c2)CC1 [Example 157, 2-[4-[4-[2-(Ethylamino)acetyl]piperazin-1-yl]-2-methoxy-anilino]-N-[1-[2-[2-(2-methoxyethoxy)ethoxy]ethyl]-3,5-dimethyl-pyrazol-4-yl]-5,6-dihydropyrimido[4,5-e]indolizine-7-carboxamide]
CCNCC(=O)N1CCN(c2ccc(Nc3ncc4c(n3)-n3ccc(C(=O)Nc5c(CC)nn(CCOCCOC)c5CC)c3CC4)c(OC)c2)CC1 [Example 158, N-[3,5-diethyl-1-[2-(2-methoxyethoxy)ethyl]pyrazol-4-yl]-2-[4-[4-[2-(ethylamino)acetyl]piperazin-1-yl]-2-methoxy-anilino]-5,6-dihydropyrimido[4,5-e]indolizine-7-carboxamide]
CCc1nn(CCOCCOC)c(CC)c1NC(=O)c1ccn2c1CCc1cnc(Nc3ccc(N4CCN(C(=O)COC)CC4)cc3OC)nc1-2 [Example 159, N-[3,5-diethyl-1-[2-(2-methoxyethoxy)ethyl]pyrazol-4-yl]-2-[2-methoxy-4-[4-(2-methoxyacetyl)piperazin-1-yl]anilino]-5,6-dihydropyrimido[4,5-e]indolizine-7-carboxamide]

Test system: MOLT-4 cancer cell line
Assay: Cell proliferation assay, MOLT-4 cancer cell line (ATPlite);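 also: luminescence read-out, percent growth versus compound-free DMSO wells as maximum growth, start-of-incubation signal separating growth from cell death, IC50 from logistic curve fit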
Type: cell-based
Conditions: 72 hours incubation, ATPlite 1Step

IC50, < 50 nM:
2-[4-(2-methoxy-anilino]-N-(2,6-dimethylphenyl)-5,6-dihydropyrimido[4,5-e]indolizine-7-carboxamide [Example 48]
COc1cc(OCCN(C)C)ccc1Nc1ncc2c(n1)-n1ccc(C(=O)Nc3c(C)cccc3Cl)c1CC2 [Example 49, N-(2-chloro-6-methyl-phenyl)-2-[4-(2-dimethylaminoethyloxy)-2-methoxy-anilino]-5,6-dihydropyrimido[4.5-e]indolizine-7-carboxamide]
CCc1cccc(C)c1NC(=O)c1ccn2c1CCc1cnc(Nc3ccc(OCCN(C)C)cc3OC)nc1-2 [Example 50, 2-[4-(2-Dimethylaminoethyloxy)-2-methoxy-anilino]-N-(2-ethyl-6-methyl-phenyl)-5,6-dihydropyrimido[4.5-e]indolizine-7-carboxamide]
CCc1cccc(C)c1NC(=O)c1ccn2c1CCc1cnc(Nc3ccc(N4CCOCC4)nc3C)nc1-2 [Example 69]
COc1cc(N2CCNCC2)ccc1Nc1ncc2ccc3c(C(=O)Nc4c(C)cccc4C)ccn3c2n1 [Example 74, N-(2,6-dimethylphenyl)-2-(2-methoxy-4-piperazin-1-yl-anilino)pyrimido[4,5-e]indolizine-7-carboxamide carboxamide]
COCCn1nc(C)c(NC(=O)c2ccn3c2ccc2cnc(Nc4ccc(OC5CCN(C)CC5)cc4OC)nc23)c1C [Example 95, N-[1-(2-methoxyethyl)-3,5-dimethyl-pyrazol-4-yl]-2-[2-methoxy-4-yl]-2-[2-methoxy-4-[(1-methyl-4-piperidyl)oxy]anilino]pyrimido[4,5-e]indolizine-7-carboxamide]
COc1cc(N2CCN(C(=O)C3CC(F)C3)CC2)ccc1Nc1ncc2c(n1)-n1ccc(C(=O)Nc3c(C)cccc3C)c1CC2 (stereo not shown) [Example 110]
COc1cc(N2CCN(C(=O)C3(C)COC3)CC2)ccc1Nc1ncc2c(n1)-n1ccc(C(=O)Nc3c(C)cccc3C)c1CC2 [Example 111]
COc1cc(C(=O)N[C@H]2CC[C@@H](N)CC2)ccc1Nc1ncc2c(n1)-n1ccc(C(=O)Nc3c(C)cccc3C)c1CC2 [Example 119, 2-[4-[(4-cis-Aminocyclohexyl)carbamoyl]-2-methoxy-anilino]-N-(2,6-dimethylphenyl)-5,6-dihydropyrimido[4,5-e]indolizine-7-carboxamide]
COc1cc(C(=O)NC2[C@H]3COC[C@@H]23)ccc1Nc1ncc2c(n1)-n1ccc(C(=O)Nc3c(C)cccc3C)c1CC2 (stereo partly drawn) [Example 121, N-(2,6-dimethylphenyl)-2-[2-methoxy-4-[[(1R,5S)-3-oxabicyclo[3.1.0]hexan-6-yl]carbamoyl]anilino]-5,6-dihydropropyrimido[4,5-e]indolizine-7-carboxamide]
COc1cc(C(=O)N2CCS(=O)(=O)CC2)ccc1Nc1ncc2c(n1)-n1ccc(C(=O)Nc3c(C)cccc3C)c1CC2 [Example 123, N-(2,6-dimethylphenyl)-2-[4-(1,1-dioxo-1,4-thiazine-4-carbonyl)-2-methoxy-anilino]-5,6-dihydropyrimido[4,5-e]indolizine-7-carboxamide]
N-(2,6-diethylphenyl)-2-[2-methoxy-4-[(1-methyl-3-piperidyl)carbamoyl]anilino]-5,6-dihydropyrimido[4,5-e]indolizine-7-carboxamide [Example 60]
N-(2,6-dimethylphenyl)-2-[2-methoxy-4-[(1-methyl-4-piperidyl)oxy]anilino]-5,6-dihydropyrimido[4,5-e]indolizine-7-carboxamide [Example 45]
N-(3,5-diethyl-1H-pyrazol-4-yl)-2-[2-methoxy-4-(4-methylpiperazin-1-yl)anilino]-5,6-dihydropyrimido[4,5-e]indolizine-7-carboxamide [Example 21]
